Drawing on paper PMC11948754, this text covers binding for 1 substance.

By UniProt entry, the sequences of proteins in these tests, tags left out.
UniProt Q13042: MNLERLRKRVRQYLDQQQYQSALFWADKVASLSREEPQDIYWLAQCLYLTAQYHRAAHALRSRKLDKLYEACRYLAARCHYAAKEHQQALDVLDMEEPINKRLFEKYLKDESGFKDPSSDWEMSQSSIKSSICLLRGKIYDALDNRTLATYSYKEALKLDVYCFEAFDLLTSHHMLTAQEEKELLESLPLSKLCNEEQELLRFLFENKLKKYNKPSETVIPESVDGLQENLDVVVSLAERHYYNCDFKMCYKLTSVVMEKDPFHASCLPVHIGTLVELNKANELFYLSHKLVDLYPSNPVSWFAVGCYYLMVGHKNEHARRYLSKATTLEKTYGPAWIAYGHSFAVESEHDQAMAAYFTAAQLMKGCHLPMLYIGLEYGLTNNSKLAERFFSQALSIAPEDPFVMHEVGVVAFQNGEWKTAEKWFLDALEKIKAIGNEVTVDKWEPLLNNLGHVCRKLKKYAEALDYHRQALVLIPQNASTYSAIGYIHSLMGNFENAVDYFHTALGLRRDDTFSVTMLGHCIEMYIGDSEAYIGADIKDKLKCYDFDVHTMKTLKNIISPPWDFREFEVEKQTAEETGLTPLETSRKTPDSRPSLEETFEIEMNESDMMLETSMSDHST
UniProt P05412: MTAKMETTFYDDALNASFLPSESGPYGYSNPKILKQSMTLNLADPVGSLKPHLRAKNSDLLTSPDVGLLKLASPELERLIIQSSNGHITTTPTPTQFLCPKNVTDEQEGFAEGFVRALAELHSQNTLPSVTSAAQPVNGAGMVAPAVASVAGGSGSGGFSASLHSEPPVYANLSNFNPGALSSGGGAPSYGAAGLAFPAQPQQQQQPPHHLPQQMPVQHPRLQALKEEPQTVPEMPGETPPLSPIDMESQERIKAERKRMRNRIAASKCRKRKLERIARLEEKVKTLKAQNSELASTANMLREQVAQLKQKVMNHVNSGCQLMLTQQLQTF

No constants are given. Whether binding was seen depends on the method and setting. Binding seen in cells or lysates may run through a third protein. Some binding calls cover weakened binding; strength is not graded here.

For the experiment, the target named is CDC16 (human (endogenous in SH-SY5Y)) (UniProt Q13042). Briefly: co-IP; anti-CDC16 antibody on Dynabeads Protein G, total cell lysates, 4 °C overnight, washed with PBS 0.1% Tween-20, Western blot; IgG as negative control; NC and c-Jun OE SH-SY5Y cells. Background: In western blotting, separated proteins are transferred to a membrane and probed.

Take c-Jun (from UniProt P05412 1-331): the binding entry is listed as “binds”.
